Measurements as given in PubChem BioAssay AID186 (DTP/NCI, 2004).
Values are animals surviving of animals treated; these mice carried no tumour. Survivors were counted at the toxicity check, usually on the fifth day, unless a day is given; later deaths do not show. Schedules are NCI's codes, taken here to give the interval after Q, in days (D) or hours (H), and the number of doses after X.

System: B6D2F1 mice, nontumored toxicity test, survival
Test: NCI In Vivo Anticancer Drug Screen. Data for tumor model Nontumored Animals (Toxicity Test) in B6D2F1 (BDF1) mice

`O=c1[nH]c(=O)n([C@H]2CCCO2)cc1F` was tested, and the survivor count (dose: 262.0 mg/kg/injection, schedule: Q01DX002 (other), vehicle: water) was 6 of 6, the survivor count (dose: 262.0 mg/kg/injection, schedule: Q01DX004 (other), vehicle: water) was 6 of 6 and the survivor count (dose: 262.0 mg/kg/injection, schedule: Q01DX006 (other), vehicle: water) was 6 of 6. The survivor count (dose: 262.0 mg/kg/injection, schedule: Q01DX008 (other), vehicle: water) was 6 of 6, the survivor count (dose: 262.0 mg/kg/injection, schedule: Q01DX012 (other), vehicle: water) was 6 of 6 and the survivor count (dose: 300.0 mg/kg/injection, schedule: Q01DX001 (ip), vehicle: other) was 6 of 6. The survivor count (dose: 320.0 mg/kg/injection, schedule: Q01DX002 (sc), vehicle: clinical formulation) was 8 of 8, the survivor count (dose: 320.0 mg/kg/injection, schedule: Q01DX005 (sc), vehicle: clinical formulation) was 8 of 8 and the survivor count (dose: 320.0 mg/kg/injection, schedule: Q04DX002 (sc), vehicle: clinical formulation) was 6 of 6. The survivor count (dose: 328.0 mg/kg/injection, schedule: Q01DX001 (other), vehicle: water) was 6 of 6, the survivor count (dose: 328.0 mg/kg/injection, schedule: Q01DX002 (other), vehicle: water) was 6 of 6 and the survivor count (dose: 328.0 mg/kg/injection, schedule: Q01DX004 (other), vehicle: water) was 6 of 6. The survivor count (dose: 328.0 mg/kg/injection, schedule: Q01DX006 (other), vehicle: water) was 6 of 6, the survivor count (dose: 328.0 mg/kg/injection, schedule: Q01DX008 (other), vehicle: water) was 6 of 6 and the survivor count (dose: 400.0 mg/kg/injection, schedule: Q01DX001 (ip), vehicle: Klucel (hydroxypropylcellulose) (HPC)) was 6 of 6. For the same compound, the survivor count (dose: 400.0 mg/kg/injection, schedule: Q01DX001 (ip), vehicle: other) was 6 of 6, the survivor count (dose: 400.0 mg/kg/injection, schedule: Q01DX001 (sc), vehicle: clinical formulation) was 6 of 6 and the survivor count (dose: 400.0 mg/kg/injection, schedule: Q01DX002 (sc), vehicle: clinical formulation) was 6 of 6. The survivor count (dose: 400.0 mg/kg/injection, schedule: Q04DX002 (sc), vehicle: clinical formulation) was 8 of 8, the survivor count (dose: 400.0 mg/kg/injection, schedule: Q10DX002 (sc), vehicle: clinical formulation) was 5 of 5 and the survivor count (dose: 410.0 mg/kg/injection, schedule: Q01DX001 (other), vehicle: water) was 6 of 6. The survivor count (dose: 410.0 mg/kg/injection, schedule: Q01DX002 (other), vehicle: water) was 6 of 6, the survivor count (dose: 410.0 mg/kg/injection, schedule: Q01DX004 (other), vehicle: water) was 6 of 6 and the survivor count (dose: 410.0 mg/kg/injection, schedule: Q01DX006 (other), vehicle: water) was 6 of 6. For the same compound, the survivor count (dose: 500.0 mg/kg/injection, schedule: Q01DX001 (ip), vehicle: other) was 4 of 4, the survivor count (dose: 500.0 mg/kg/injection, schedule: Q01DX001 (sc), vehicle: clinical formulation) was 8 of 8 and the survivor count (dose: 500.0 mg/kg/injection, schedule: Q01DX002 (sc), vehicle: clinical formulation) was 6 of 6. The survivor count (dose: 500.0 mg/kg/injection, schedule: Q04DX002 (sc), vehicle: clinical formulation) was 6 of 6, the survivor count (dose: 500.0 mg/kg/injection, schedule: Q10DX002 (sc), vehicle: clinical formulation) was 6 of 6 and the survivor count (dose: 512.0 mg/kg/injection, schedule: Q01DX001 (other), vehicle: water) was 6 of 6. The survivor count (dose: 512.0 mg/kg/injection, schedule: Q01DX002 (other), vehicle: water) was 6 of 6, the survivor count (dose: 512.0 mg/kg/injection, schedule: Q01DX004 (other), vehicle: water) was 5 of 6 and the survivor count (dose: 600.0 mg/kg/injection, schedule: Q01DX001 (ip), vehicle: Klucel (hydroxypropylcellulose) (HPC)) was 5 of 5. For the same compound, the survivor count (dose: 600.0 mg/kg/injection, schedule: Q01DX001 (ip), vehicle: other) was 5 of 5, the survivor count (dose: 625.0 mg/kg/injection, schedule: Q01DX001 (sc), vehicle: clinical formulation) was 6 of 6 and the survivor count (dose: 625.0 mg/kg/injection, schedule: Q04DX002 (sc), vehicle: clinical formulation) was 6 of 6. The survivor count (dose: 625.0 mg/kg/injection, schedule: Q10DX002 (sc), vehicle: clinical formulation) was 6 of 6, the survivor count (dose: 640.0 mg/kg/injection, schedule: Q01DX001 (other), vehicle: water) was 6 of 6 and the survivor count (dose: 640.0 mg/kg/injection, schedule: Q01DX002 (other), vehicle: water) was 6 of 6. For the same compound, the survivor count (dose: 700.0 mg/kg/injection, schedule: Q01DX001 (ip), vehicle: other) was 6 of 6, the survivor count (dose: 781.0 mg/kg/injection, schedule: Q01DX001 (sc), vehicle: clinical formulation) was 6 of 6 and the survivor count (dose: 781.0 mg/kg/injection, schedule: Q04DX002 (sc), vehicle: clinical formulation) was 6 of 6. The survivor count (dose: 781.0 mg/kg/injection, schedule: Q10DX002 (sc), vehicle: clinical formulation) was 6 of 6, the survivor count (dose: 800.0 mg/kg/injection, schedule: Q01DX001 (ip), vehicle: Klucel (hydroxypropylcellulose) (HPC)) was 6 of 6 and the survivor count (dose: 800.0 mg/kg/injection, schedule: Q01DX001 (ip), vehicle: other) was 6 of 6. For the same compound, the survivor count (dose: 800.0 mg/kg/injection, schedule: Q01DX001 (other), vehicle: water) was 6 of 6, the survivor count (dose: 800.0 mg/kg/injection, schedule: Q01DX002 (other), vehicle: water) was 6 of 6 and the survivor count (dose: 977.0 mg/kg/injection, schedule: Q01DX001 (sc), vehicle: clinical formulation) was 6 of 6. The survivor count (dose: 977.0 mg/kg/injection, schedule: Q10DX002 (sc), vehicle: clinical formulation) was 6 of 6, the survivor count (dose: 1000.0 mg/kg/injection, schedule: Q01DX001 (ip), vehicle: Klucel (hydroxypropylcellulose) (HPC)) was 6 of 6 and the survivor count (dose: 1000.0 mg/kg/injection, schedule: Q01DX001 (ip), vehicle: other) was 4 of 6. The survivor count (dose: 1000.0 mg/kg/injection, schedule: Q01DX001 (other), vehicle: water) was 6 of 6, the survivor count (dose: 1000.0 mg/kg/injection, schedule: Q01DX002 (other), vehicle: water) was 6 of 6 and the survivor count (dose: 1200.0 mg/kg/injection, schedule: Q01DX001 (ip), vehicle: Klucel (hydroxypropylcellulose) (HPC)) was 3 of 6. For the same compound, the survivor count (dose: 1200.0 mg/kg/injection, schedule: Q01DX001 (ip), vehicle: other) was 6 of 6, the survivor count (dose: 1400.0 mg/kg/injection, schedule: Q01DX001 (ip), vehicle: Klucel (hydroxypropylcellulose) (HPC)) was 4 of 6 and the survivor count (dose: 1600.0 mg/kg/injection, schedule: Q01DX001 (ip), vehicle: Klucel (hydroxypropylcellulose) (HPC)) was 5 of 6.
